Values quoted from earlier work, collected in US20120148662A1, “Formulation” (priority 2010, published 2012).
At least one compound was matched to its structure with a doubt left.

What was measured:
CETP [1] = biological target: T1, CETP (Homo sapiens, UniProt P11597); details: humans
T1 sequence (P11597 18-493): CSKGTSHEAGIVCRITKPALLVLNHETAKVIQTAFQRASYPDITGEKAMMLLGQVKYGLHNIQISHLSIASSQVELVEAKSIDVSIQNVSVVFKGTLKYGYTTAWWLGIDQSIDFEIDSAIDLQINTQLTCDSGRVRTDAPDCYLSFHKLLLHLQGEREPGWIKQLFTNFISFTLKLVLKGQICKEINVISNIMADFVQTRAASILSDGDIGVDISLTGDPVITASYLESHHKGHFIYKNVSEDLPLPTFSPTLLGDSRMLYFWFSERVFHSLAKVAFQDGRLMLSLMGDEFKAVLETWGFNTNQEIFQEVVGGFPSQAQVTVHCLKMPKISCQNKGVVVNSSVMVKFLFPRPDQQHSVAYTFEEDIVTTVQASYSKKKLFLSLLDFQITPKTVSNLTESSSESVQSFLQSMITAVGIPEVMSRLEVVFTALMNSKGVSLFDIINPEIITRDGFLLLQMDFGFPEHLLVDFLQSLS

CETP [2] = biological target: T2, CETP (Oryctolagus cuniculus, UniProt P22687); details: rabbits
T2 construct: and rabbits (Shinkai et al., J. Alfed. Chez., 43, 3566-3572 (2000))
T2 sequence (P22687 2-497): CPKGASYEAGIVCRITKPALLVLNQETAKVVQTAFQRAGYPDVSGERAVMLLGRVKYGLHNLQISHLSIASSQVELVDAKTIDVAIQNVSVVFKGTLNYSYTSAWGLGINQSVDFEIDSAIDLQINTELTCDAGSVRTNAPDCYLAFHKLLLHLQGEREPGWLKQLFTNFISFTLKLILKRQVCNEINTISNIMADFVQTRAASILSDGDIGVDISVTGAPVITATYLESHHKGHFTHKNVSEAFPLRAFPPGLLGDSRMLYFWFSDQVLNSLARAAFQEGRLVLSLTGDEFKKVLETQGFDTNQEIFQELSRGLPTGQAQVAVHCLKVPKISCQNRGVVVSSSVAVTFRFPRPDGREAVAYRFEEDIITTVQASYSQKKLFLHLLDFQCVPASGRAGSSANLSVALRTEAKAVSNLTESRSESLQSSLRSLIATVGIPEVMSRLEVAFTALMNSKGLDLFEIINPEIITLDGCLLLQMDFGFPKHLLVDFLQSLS

Question: Which “inhibition of CETP activity” value (CETP [1]) does the source give for `CCC(CC)CC1(C(=O)Nc2ccccc2SC(=O)C(C)C)CCCCC1` [dalcetrapib, S-[2-([[1-(2-ethylbutyl)-cyclohexyl]-carbonyl]amino)phenyl]2-methylpropanethioate] here?
Answer: The value was “inhibitor of CETP activity”.

Question: What about the “inhibition of CETP activity” value (CETP [2]) of the same molecule?
Answer: Its value is “inhibitor of CETP activity”.
